The other results are listed elsewhere or left out.

The chains behind the UniProt entries cited, without tags or fusion partners. Where a name states a change or a piece, a line headed by the entry shows the natural chain unless it says otherwise.
UniProt O95214: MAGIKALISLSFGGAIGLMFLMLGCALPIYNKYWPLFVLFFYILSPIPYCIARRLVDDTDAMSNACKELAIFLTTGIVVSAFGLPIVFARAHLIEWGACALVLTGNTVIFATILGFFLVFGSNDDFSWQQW
UniProt O94898: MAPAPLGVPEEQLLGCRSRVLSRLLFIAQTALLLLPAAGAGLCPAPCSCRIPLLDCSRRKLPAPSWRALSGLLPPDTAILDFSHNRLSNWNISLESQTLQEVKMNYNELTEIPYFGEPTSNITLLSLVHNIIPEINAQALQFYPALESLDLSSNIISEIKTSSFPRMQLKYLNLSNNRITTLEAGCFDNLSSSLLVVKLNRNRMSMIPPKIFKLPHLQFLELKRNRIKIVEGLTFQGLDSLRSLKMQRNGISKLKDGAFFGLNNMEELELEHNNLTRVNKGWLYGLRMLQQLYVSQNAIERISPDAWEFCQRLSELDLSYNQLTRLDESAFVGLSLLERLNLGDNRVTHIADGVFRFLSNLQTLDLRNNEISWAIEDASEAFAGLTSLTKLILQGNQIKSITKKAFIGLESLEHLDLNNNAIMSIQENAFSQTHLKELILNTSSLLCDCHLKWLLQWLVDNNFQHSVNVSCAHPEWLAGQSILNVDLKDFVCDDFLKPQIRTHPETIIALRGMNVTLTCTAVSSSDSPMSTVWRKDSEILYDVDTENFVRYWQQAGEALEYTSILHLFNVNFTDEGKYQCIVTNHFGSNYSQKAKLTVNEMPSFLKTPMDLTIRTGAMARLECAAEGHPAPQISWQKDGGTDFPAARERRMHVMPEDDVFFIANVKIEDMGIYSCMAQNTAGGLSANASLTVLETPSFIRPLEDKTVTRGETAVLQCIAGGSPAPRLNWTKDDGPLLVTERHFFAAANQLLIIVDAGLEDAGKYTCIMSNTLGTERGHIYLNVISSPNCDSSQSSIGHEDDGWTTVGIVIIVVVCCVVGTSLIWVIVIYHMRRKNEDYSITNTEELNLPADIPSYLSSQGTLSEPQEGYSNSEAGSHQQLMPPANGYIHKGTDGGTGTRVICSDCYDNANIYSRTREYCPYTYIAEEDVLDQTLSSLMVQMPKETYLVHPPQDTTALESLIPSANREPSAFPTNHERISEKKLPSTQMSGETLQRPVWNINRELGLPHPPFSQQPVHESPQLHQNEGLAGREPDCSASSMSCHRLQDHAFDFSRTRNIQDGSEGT
UniProt P28838: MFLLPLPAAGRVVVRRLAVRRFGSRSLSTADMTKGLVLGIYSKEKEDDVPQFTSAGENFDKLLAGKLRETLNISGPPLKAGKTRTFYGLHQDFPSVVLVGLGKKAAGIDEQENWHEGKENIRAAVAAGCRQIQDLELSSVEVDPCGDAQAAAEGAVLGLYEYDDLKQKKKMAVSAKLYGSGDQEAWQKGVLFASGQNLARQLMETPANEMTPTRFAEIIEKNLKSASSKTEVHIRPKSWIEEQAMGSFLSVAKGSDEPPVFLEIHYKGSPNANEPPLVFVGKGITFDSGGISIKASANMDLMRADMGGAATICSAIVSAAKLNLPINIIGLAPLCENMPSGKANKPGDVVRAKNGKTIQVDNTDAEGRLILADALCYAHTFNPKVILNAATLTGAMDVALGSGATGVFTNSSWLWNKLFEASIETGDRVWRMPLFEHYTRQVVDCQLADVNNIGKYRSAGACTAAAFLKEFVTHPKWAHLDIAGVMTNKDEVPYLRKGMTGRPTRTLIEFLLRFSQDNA
UniProt Q8TCA0: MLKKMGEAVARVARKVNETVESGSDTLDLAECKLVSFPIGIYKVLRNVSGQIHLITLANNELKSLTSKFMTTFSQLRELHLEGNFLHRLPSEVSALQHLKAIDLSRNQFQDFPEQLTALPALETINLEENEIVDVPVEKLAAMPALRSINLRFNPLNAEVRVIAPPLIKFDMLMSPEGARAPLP
UniProt Q96EM0: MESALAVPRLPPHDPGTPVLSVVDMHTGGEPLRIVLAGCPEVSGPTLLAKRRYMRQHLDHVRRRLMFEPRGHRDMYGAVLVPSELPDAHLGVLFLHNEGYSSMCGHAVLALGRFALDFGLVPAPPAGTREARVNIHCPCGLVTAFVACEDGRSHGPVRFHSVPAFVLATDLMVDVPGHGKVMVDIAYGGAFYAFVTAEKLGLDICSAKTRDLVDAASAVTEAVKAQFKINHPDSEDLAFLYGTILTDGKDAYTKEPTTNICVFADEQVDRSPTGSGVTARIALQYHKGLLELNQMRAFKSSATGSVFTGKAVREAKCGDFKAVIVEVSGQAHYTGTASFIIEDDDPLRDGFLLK
UniProt P13796: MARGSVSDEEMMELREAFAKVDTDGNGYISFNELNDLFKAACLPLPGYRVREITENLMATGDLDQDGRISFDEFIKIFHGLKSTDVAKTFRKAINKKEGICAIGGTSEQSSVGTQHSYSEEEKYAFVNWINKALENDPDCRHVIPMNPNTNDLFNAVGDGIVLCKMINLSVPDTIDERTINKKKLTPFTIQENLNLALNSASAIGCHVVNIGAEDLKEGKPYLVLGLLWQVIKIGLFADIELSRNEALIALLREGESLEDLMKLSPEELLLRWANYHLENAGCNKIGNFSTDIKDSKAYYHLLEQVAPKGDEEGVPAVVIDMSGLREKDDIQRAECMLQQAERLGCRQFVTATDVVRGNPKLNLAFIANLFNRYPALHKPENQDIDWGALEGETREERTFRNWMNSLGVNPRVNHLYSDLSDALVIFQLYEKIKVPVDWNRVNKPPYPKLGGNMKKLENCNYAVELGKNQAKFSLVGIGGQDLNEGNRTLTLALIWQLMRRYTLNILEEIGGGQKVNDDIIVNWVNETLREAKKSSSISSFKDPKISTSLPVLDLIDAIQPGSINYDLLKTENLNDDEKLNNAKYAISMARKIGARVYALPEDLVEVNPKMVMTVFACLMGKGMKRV
UniProt Q16773: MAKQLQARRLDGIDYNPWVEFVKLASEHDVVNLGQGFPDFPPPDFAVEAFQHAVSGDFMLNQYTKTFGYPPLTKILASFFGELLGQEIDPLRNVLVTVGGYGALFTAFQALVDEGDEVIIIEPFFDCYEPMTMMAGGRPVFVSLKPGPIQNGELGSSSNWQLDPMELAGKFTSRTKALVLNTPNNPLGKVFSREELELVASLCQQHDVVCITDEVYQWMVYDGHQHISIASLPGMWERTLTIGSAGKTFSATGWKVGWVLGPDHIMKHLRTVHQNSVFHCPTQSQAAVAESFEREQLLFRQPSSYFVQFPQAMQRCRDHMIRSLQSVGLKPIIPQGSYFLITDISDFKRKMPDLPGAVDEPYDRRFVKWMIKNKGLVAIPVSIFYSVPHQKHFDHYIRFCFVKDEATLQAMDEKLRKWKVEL
UniProt Q08380: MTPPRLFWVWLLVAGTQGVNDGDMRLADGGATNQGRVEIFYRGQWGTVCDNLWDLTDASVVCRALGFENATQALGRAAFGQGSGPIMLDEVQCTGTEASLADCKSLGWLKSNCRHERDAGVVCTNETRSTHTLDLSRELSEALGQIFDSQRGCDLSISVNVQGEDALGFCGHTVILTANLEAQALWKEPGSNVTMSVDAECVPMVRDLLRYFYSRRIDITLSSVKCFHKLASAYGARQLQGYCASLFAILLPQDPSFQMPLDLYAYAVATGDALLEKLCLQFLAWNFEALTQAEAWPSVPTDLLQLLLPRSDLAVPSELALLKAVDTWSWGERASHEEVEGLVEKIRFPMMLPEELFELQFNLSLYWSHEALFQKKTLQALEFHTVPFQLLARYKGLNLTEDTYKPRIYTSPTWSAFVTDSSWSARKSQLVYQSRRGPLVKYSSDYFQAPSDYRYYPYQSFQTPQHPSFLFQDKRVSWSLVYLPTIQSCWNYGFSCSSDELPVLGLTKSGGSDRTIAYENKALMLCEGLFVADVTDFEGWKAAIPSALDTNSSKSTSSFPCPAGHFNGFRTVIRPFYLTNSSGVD
UniProt O75581: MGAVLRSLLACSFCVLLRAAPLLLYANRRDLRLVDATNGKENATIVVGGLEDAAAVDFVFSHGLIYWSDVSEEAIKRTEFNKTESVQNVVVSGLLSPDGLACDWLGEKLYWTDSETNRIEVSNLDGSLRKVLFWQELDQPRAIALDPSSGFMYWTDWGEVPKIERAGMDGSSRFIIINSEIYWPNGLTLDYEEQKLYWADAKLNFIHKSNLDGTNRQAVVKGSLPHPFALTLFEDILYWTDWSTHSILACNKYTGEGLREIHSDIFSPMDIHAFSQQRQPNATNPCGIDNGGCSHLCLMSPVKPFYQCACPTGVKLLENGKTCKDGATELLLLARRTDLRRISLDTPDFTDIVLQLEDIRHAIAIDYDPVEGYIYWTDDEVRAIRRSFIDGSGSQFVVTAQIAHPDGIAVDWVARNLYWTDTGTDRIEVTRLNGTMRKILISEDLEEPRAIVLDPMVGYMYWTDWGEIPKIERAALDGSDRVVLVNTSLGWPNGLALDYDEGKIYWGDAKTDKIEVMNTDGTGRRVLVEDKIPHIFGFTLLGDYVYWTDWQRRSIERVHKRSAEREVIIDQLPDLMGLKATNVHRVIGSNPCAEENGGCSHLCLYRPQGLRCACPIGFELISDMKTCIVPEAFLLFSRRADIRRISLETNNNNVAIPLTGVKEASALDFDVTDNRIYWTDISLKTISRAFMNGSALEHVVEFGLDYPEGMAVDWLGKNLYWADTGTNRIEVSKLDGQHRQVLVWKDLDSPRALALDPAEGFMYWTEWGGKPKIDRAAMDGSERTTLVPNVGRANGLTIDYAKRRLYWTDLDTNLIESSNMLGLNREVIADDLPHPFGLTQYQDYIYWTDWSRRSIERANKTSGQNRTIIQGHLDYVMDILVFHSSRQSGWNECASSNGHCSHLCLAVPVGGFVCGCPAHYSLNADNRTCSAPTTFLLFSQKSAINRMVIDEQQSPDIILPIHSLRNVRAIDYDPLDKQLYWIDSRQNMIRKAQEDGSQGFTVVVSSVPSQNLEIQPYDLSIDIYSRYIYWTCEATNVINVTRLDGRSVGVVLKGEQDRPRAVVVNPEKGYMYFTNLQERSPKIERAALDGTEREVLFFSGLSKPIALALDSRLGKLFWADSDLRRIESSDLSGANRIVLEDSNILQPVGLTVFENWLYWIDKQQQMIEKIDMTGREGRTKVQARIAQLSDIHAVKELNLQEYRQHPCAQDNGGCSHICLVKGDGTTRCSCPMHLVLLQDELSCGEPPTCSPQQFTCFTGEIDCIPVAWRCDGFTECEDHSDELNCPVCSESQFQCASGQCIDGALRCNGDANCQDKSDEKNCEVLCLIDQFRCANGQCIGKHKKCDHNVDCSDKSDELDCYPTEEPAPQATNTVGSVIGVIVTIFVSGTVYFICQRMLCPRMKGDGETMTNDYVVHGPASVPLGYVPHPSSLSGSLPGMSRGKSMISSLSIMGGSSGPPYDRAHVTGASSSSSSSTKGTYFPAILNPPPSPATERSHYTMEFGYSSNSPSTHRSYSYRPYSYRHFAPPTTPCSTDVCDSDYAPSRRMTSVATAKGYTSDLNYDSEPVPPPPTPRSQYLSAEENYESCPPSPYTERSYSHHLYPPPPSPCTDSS
UniProt Q9BRT6: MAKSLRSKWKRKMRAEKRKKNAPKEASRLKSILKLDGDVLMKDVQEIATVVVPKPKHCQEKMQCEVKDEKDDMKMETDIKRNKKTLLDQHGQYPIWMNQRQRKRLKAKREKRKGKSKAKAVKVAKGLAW
UniProt P49917: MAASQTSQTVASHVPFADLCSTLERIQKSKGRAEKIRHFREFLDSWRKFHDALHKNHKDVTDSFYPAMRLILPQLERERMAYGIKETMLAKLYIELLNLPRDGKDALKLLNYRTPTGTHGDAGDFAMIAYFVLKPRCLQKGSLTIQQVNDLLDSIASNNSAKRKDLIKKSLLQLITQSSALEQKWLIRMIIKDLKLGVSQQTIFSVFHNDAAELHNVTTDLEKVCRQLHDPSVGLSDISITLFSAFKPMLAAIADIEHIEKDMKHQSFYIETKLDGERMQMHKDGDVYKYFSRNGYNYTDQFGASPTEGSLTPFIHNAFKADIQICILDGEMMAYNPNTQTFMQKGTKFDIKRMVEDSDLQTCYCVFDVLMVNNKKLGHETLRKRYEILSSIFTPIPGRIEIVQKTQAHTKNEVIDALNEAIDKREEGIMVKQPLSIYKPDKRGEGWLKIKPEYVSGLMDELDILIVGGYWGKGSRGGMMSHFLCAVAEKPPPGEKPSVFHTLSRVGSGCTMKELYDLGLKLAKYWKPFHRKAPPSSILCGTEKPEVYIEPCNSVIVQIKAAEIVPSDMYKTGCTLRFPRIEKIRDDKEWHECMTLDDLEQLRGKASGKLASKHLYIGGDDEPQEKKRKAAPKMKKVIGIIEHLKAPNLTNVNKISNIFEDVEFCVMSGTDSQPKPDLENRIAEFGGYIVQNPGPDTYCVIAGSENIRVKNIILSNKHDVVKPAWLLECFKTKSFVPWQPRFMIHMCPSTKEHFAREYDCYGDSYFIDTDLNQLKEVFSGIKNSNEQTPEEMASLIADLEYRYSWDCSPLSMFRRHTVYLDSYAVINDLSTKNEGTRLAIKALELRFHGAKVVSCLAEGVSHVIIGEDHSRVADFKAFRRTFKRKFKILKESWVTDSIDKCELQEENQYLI

Compound in this test: c1cn2cc(-c3ccc4cn[nH]c4c3)nc(Nc3ccc(N4CCOCC4)cc3)c2n1 [entospletinib]
The test is described as follows: log2 fold change, soluble protein after heating vs DMSO (PISA); higher = thermal stabilisation; K562 cells, 10 uM, 30 min; active = over 0.2 and 3.5 SD of the protein, either way, in both replicates (recomputed). An outline of the steps: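 K562 cells at 2×10^6 cells/mL were treated for 30 min with 10 μM compound, and aliquots were heated for 3 min over 48°C-58°C before pooling. Extraction used PBS with 0.5% NP-40 at 4°C, and soluble protein was the supernatant after 21,000xg for 90 min, measured by TMTpro 16plex LC-MS/MS with channel sums equalised. Thermal stability values, relative to control samples and from duplicates, are log2 fold changes.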
For the target LMAN1 (UniProt P49257), the log2 fold change is inactive: 0.007.
The value for KYNU (UniProt Q16719) was inactive: -0.02; that for LPCAT2 (UniProt Q7L5N7) was inactive: -0.027; that for LIN7A (UniProt O14910) was inactive: 0.01.
The value for LIN9 isoform 2 (UniProt Q5TKA1) was inactive: 0.166.
On to LEPROTL1 isoform 2 (UniProt O95214), for which the log2 fold change was inactive: 0.033.
In the case of LDHA isoform 3 (UniProt P00338) it was inactive: -0.01; in that of LIMD2 (UniProt Q9BT23), inactive: 0.204.
The value for LRRC4B (UniProt Q9NT99) was inactive: -0.133; that for LACTB (UniProt P83111) was inactive: -0.017.
For LONP1 (UniProt P36776), the log2 fold change was inactive: 0.014.
Turning to LRIG2 (UniProt O94898), the log2 fold change is inactive: -0.024.
In the case of LAP3 (UniProt P28838) it was inactive: -0.033; in that of LRRC57 (UniProt Q8N9N7), inactive: 0.052.
The value for LLGL2 (UniProt Q6P1M3) was inactive: 0.052; that for LAMTOR4 (UniProt Q0VGL1) was inactive: 0.009.
LRRC20 (UniProt Q8TCA0): the log2 fold change is inactive: 0.023.
In the case of LPIN2 (UniProt Q92539) it was inactive: 0.061; in that of LIMK2 isoform 3 (UniProt P53671), inactive: 0.033; in that of LIN28B (UniProt Q6ZN17), inactive: 0.112.
For LGALS1 (UniProt P09382), the log2 fold change is inactive: -0.016.
Turning to L1RE1 (UniProt Q9UN81), the log2 fold change is inactive: 0.053.
Turning to L3HYPDH (UniProt Q96EM0), the log2 fold change was inactive: 0.054.
Turning to LANCL1 (UniProt O43813), the log2 fold change is inactive: 0.003.
The value for LCP2 (UniProt Q13094) was inactive: -0.04.
The value for LCP1 (UniProt P13796) was inactive: -0.02; that for LIG1 (UniProt P18858) was inactive: -0.089.
The value for LAMB1 (UniProt P07942) was inactive: -0.012.
Regarding KTI12 (UniProt Q96EK9), the log2 fold change is inactive: 0.034.
The value for LGALS3 (UniProt P17931) was inactive: -0.095; that for KYAT3 (UniProt Q6YP21) was inactive: -0.004; that for LARS2 (UniProt Q15031) was inactive: -0.017.
In the case of KYAT1 (UniProt Q16773) it was inactive: 0.013; in that of LGALS3BP (UniProt Q08380), inactive: -0.021.
Turning to LRP6 (UniProt O75581), the log2 fold change was inactive: 0.014.
In the case of LLPH (UniProt Q9BRT6) it was inactive: 0.037; in that of LCMT2 (UniProt O60294), inactive: 0.334.
In the case of LIG4 (UniProt P49917) it was inactive: -0.005.
In the case of LRIF1 (UniProt Q5T3J3) it was inactive: -0.04.

Source of the values: the supplement of paper PMC10849652.
